Data published in PubChem BioAssay.
This list holds what a sample rich in hits left over. Active and inactive are the calls of the source. Cut-off read from the data, not from the text of the source: active = inhibition above about 28%; inactive = the rest.

Target: Single-stranded DNA-binding protein (Escherichia coli (strain K12)) (UniProt P0AGE0)
Test: E. coli SSB displacement from DNA, counter-screen for HCV NS3 helicase inhibitor project, biochemical, fluorescence polarization, NIH Clinical Collection (AID 743271)
Conditions: stronger effect = higher value, concentration not given here

Structure (SMILES) | inhibition
Cc1c(C(=O)NN2CCCCC2)nn(-c2ccc(Cl)cc2Cl)c1-c1ccc(I)cc1 | inactive: 1.97%
Cc1cccc(CCN2CCC(C(=O)c3ccc(NS(C)(=O)=O)cc3)CC2)n1 | inactive: -0.39%
